According to the supplement of paper PMC10331698:
± gives the standard deviation of the averaged measurements. Small differences around the control level are noise.

Legend:
Experiment in all cases: level (log10 ratio to DMSO vehicle control); higher = higher biomarker level / cell amount than vehicle control
[1] = compound: O=S(=O)(F)C(F)(F)C(F)(F)C(F)(F)C(F)(F)C(F)(F)C(F)(F)C(F)(F)C(F)(F)F [Perfluorooctanesulfonyl fluoride]; details: 2200 nM; in DMSO
Description: (§1)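 BioMAP Diversity Plus panel of 12 human primary cell co-culture systems (3C, 4H, LPS, SAg, BT, BF4T, BE3C, CASM3C, HDF3CGF, KF3CT, MyoF, Mphg). Compounds were added 1 h before stimulation and left for 24 h (MyoF 48 h; BT 72 h for soluble read-outs or 6 d for IgG). Biomarkers were read by ELISA, cytotoxicity by SRB, PBMC viability and proliferation by Alamar Blue. Each well value was divided by the mean of 8 DMSO control wells on the same plate and log10 transformed; duplicate blinded samples were tested at 4 concentrations.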

[2] = compound: O=C(O)C(F)(F)C(F)(F)C(F)F [4H-Perfluorobutanoic acid]; details: in DMSO
Description: as §1

[3] = compound: NC(=O)C(F)(F)C(F)(F)C(F)(F)C(F)F; details: in DMSO
Description: as §1

[4] = compound: O=S(=O)(O)C(F)(F)C(F)(F)C(F)(F)C(F)(F)C(F)(F)C(F)(F)C(F)(F)C(F)(F)F [Perfluorooctanesulfonic acid]; details: 2200 nM; in DMSO
Description: as §1

[5] = compound: OCCCCC(F)(F)C(F)(F)C(F)(F)C(F)(F)F [4:4 Fluorotelomer alcohol]; details: 2200 nM; in DMSO
Description: as §1

[6] = compound: CO[Si](C)(CCC(F)(F)C(F)(F)C(F)(F)C(F)(F)C(F)(F)C(F)(F)F)OC [Dimethoxymethyl((perfluorohexyl)ethyl)silane]; details: in DMSO
Description: as §1

[7] = compound: C=CC(=O)OCC(F)(F)C(F)(F)C(F)(F)C(F)(F)C(F)(F)C(F)(F)C(F)(F)F [1H,1H-Perfluorooctyl acrylate]; details: 2200 nM; in DMSO
Description: as §1

[8] = compound: O=P(O)(O)CCC(F)(F)C(F)(F)C(F)(F)C(F)(F)C(F)(F)C(F)(F)F [2-(Perfluorohexyl)ethylphosphonic acid]; details: 2200 nM; in DMSO
Description: as §1

[9] = compound: C=C(C)C(=O)OCC(F)(F)C(F)(F)C(F)(F)C(F)(F)C(F)(F)C(F)(F)C(F)(F)F; details: in DMSO
Description: as §1

[10] = compound: FC(F)(F)C(F)(F)C(F)(F)CC1CO1 [1H,1H-Heptafluorobutyl epoxide]; details: 2200 nM; in DMSO
Description: as §1

[11] = compound: C=CC(F)(F)C(F)(F)C(F)(F)C(F)(F)C(F)(F)C(F)(F)C(F)(F)C(F)(F)C=C [1,8-Divinylperfluorooctane]; details: in DMSO
Description: as §1

[12] = compound: O=S(=O)(OCC(F)(F)F)C(F)(F)C(F)(F)C(F)(F)C(F)(F)F [2,2,2-Trifluoroethyl perfluorobutanesulfonate]; details: 2200 nM; in DMSO
Description: as §1

[13] = compound: NS(=O)(=O)C(F)(F)C(F)(F)C(F)(F)C(F)(F)C(F)(F)C(F)(F)C(F)(F)C(F)(F)F [Perfluorooctanesulfonamide]; details: in DMSO
Description: as §1

[14] = compound: O=S(=O)(O)C(F)(F)C(F)(F)C(F)(F)C(F)(F)C(F)(F)C(F)(F)C(F)(F)C(F)(F)F [Potassium perfluorooctanesulfonate]; details: 2200 nM; in DMSO
Description: as §1

Pentafluoropropionamide = compound: NC(=O)C(F)(F)C(F)(F)F [Pentafluoropropionamide]; details: 2200 nM; in DMSO
Description: as §1

[15] = compound: OCC(F)(F)C(F)(F)C(F)(F)C(F)(F)C(F)(F)C(F)F [1H,1H,7H-Dodecafluoro-1-heptanol]; details: 2200 nM; in DMSO
Description: as §1

[16] = compound: COC(=O)C(F)(F)C(F)(F)OC(F)(C(F)(F)F)C(F)(F)OC(F)=C(F)F [Methyl perfluoro(3-(1-ethenyloxypropan-2-yloxy)propanoate)]; details: in DMSO
Description: as §1

Heptafluorobutyl iodide = compound: FC(F)(F)C(F)(F)C(F)(F)CI [Heptafluorobutyl iodide]; details: 2200 nM; in DMSO
Description: as §1

Test System | level (log10) [1] | level (log10) ([2]; 2200 nM) | level (log10) ([2]; 6700 nM) | level (log10) ([2]; 20000 nM) | level (log10) ([2]; 60000 nM) | level (log10) ([3]; 2200 nM) | level (log10) ([3]; 6700 nM) | level (log10) ([3]; 20000 nM) | level (log10) ([3]; 60000 nM) | level (log10) [4] | level (log10) [5] | level (log10) ([6]; 740 nM) | level (log10) ([6]; 2200 nM) | level (log10) [7] | level (log10) [8] | level (log10) ([9]; 740 nM) | level (log10) ([9]; 2200 nM) | level (log10) [10] | level (log10) ([11]; 740 nM) | level (log10) ([11]; 2200 nM) | level (log10) [12] | level (log10) ([13]; 2200 nM) | level (log10) ([13]; 6700 nM) | level (log10) ([13]; 20000 nM) | level (log10) [14] | level (log10) (Pentafluoropropionamide) | level (log10) [15] | level (log10) ([16]; 740 nM) | level (log10) ([16]; 2200 nM) | level (log10) (Heptafluorobutyl iodide)
BF4T:IL-1alpha | 0.003 ± 0.014 | -0.012 ± 0.0014 | -0.02 ± 0.0014 | -0.019 ± 0.014 | 0.0085 ± 0.012 | 0.0165 ± 0.018 | -0.0175 ± 0.021 | -0.004 ± 0.0028 | -0.002 ± 0.0057 | -0.0085 ± 0.0092 | 0.0075 ± 0.022 | 0.0045 ± 0.028 | -0.0185 ± 0.0021 | 0.004 | 0.01 ± 0.011 | 0.0175 ± 0.035 | -0.002 ± 0.0057 | 0.0155 ± 0.00071 | 0.0035 ± 0.042 | -0.013 ± 0.0014 | 0.0025 ± 0.012 | 0.0275 ± 0.033 | 0.0095 ± 0.012 | -0.0455 ± 0.022 | 0.0155 ± 0.013 | 0.0045 ± 0.021 | 0.0095 ± 0.022 | 0.0005 ± 0.0035 | -0.0085 ± 0.005 | 0.0185 ± 0.023
BF4T:Keratin 8/18 | 0.0005 ± 0.018 | -0.0185 ± 0.0035 | -0.027 ± 0.027 | -0.0025 ± 0.013 | 0.0035 ± 0.021 | 0.009 ± 0.044 | 0.004 ± 0.042 | 0.005 ± 0.011 | 0.0135 ± 0.026 | -0.001 ± 0.013 | 0.022 ± 0.037 | -0.002 ± 0.071 | 0.0145 ± 0.073 | 0.01 ± 0.028 | 0.009 ± 0.03 | 0.019 ± 0.03 | 0.0225 ± 0.015 | -0.019 ± 0.018 | 0.013 ± 0.064 | 0.012 ± 0.047 | -0.0015 ± 0.018 | -0.0065 ± 0.005 | -0.0085 ± 0.005 | -0.069 ± 0.023 | -0.007 ± 0.0057 | 0.0245 ± 0.044 | 0.0175 ± 0.0035 | 0.0105 ± 0.00071 | -0.008 ± 0.02 | 0.016 ± 0.031
BF4T:MMP-1 | 0.009 ± 0.0014 | -0.0025 ± 0.035 | -0.0075 ± 0.019 | 0 ± 0.034 | 0.006 ± 0.038 | 0.0055 ± 0.022 | 0.003 ± 0.0085 | -0.003 ± 0.0085 | 0.0075 ± 0.0035 | 0.0075 ± 0.0035 | 0.013 ± 0.018 | 0.015 ± 0.061 | -0.005 ± 0.047 | 0.006 ± 0.0099 | 0.009 ± 0.024 | 0.006 ± 0.024 | 0.001 ± 0.0057 | 0.0135 ± 0.0035 | 0.0065 ± 0.013 | -0.002 ± 0.0085 | 0.0045 ± 0.0035 | 0.008 ± 0.03 | 0.003 ± 0.016 | 0.0075 ± 0.019 | 0.032 ± 0.03 | 0.005 ± 0.027 | 0.0195 ± 0.056 | 0.006 ± 0.016 | -0.002 ± 0.0042 | 0.0065 ± 0.016
BF4T:MMP-3 | 0.0045 ± 0.019 | -0.007 ± 0.025 | -0.0025 ± 0.012 | -0.014 ± 0.02 | -0.007 ± 0.023 | 0.013 ± 0.05 | 0.01 ± 0.033 | -0.005 ± 0.047 | 0.0075 ± 0.047 | 0.019 ± 0.076 | 0.0415 ± 0.0021 | 0.01 ± 0.028 | -0.0085 ± 0.012 | -0.004 ± 0.011 | -0.0045 ± 0.046 | 0.0105 ± 0.033 | -0.003 ± 0.0099 | 0.0165 ± 0.018 | 0.014 ± 0.047 | 0.003 ± 0.0071 | 0.007 ± 0.0028 | 0.0145 ± 0.028 | 0.004 ± 0.024 | 0.0845 ± 0.028 | 0.0335 ± 0.0078 | -0.002 ± 0.013 | 0.0065 ± 0.043 | -0.008 ± 0.031 | -0.005 ± 0.034 | 0.0085 ± 0.043
